{
  "source": "patent US10526317B2",
  "about": "“Benzocyanine compounds” (PIERCE BIOTECHNOLOGY, INC., priority 2012, dated 2020)",
  "key": {"[1]": {"test_system": "goat anti-mouse (GAM) antibodies", "assay": "Labeling of goat anti-mouse antibody with dye NHS esters (mole dye to mole protein ratio)"}, "[2]": {"test_system": "goat anti-rabbit (GAR) antibodies", "assay": "Labeling of goat anti-rabbit antibody with dye NHS esters (mole dye to mole protein ratio)"}},
  "data": [
    {"compound": "Cy5.5", "values": [
      {"measurement": "degree of labeling", "setting": "[1]; GAM-3X molar excess", "value": 2.2},
      {"measurement": "degree of labeling", "setting": "[2]; GAR-1X molar excess", "value": 0.7},
      {"measurement": "degree of labeling", "setting": "[2]; GAR-2X molar excess", "value": 1.2},
      {"measurement": "degree of labeling", "setting": "[2]; GAR-3X molar excess", "value": 1.7}
    ]},
    {"compound": "COCCOCCOCCOCC[N+]1=C(/C=C/C=C/C=C2/N(CCOCCOCCOCCOCCC(=O)ON3C(=O)CCC3=O)c3ccc4c(S(=O)(=O)[O-])cc(S(=O)(=O)O)cc4c3C2(C)CCOCCOCCOCCOC)C(C)(CCOCCOCCOCCOC)c2c1ccc1c(S(=O)(=O)O)cc(S(=O)(=O)O)cc21", "note": "(stereo not shown) [Compound V08-15173]", "values": [
      {"measurement": "Mole Dye/Mole Protein Ratio @ 15 X", "setting": "[1]; GAM, 15 X molar excess", "value": 12.4},
      {"measurement": "Mole Dye/Mole Protein Ratio @ 15 X", "setting": "[2]; GAR, 15 X molar excess", "value": 12.7},
      {"measurement": "Mole Dye/Mole Protein Ratio @ 25 X", "setting": "[2]; GAR, 25 X molar excess", "value": 19.6}
    ]}
  ]
}
